Record: PubChem BioAssay AID1159578 (Peter MacCallum Cancer Centre, 2015)

Assay: 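siRNA pools altering how lymphatic endothelial cells close a scratch wound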 (primary screen)
System: human lymphatic endothelial cells
Reagents: siRNA pool against human genes, 40 nM
Time to read-out: 48 h after transfection
Measurement: 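Cells stained with dye and imaged after a scratch; covered wound area and nuclei counted, duplicates averaged, migration set against mock wells and turned into a robust z-score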
Scale: migration robust z-score: higher = faster migration into the scratch; nuclei per well: higher = more cells in the well
Call rule: 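Pools averaging fewer than 3300 nuclei are never called; remaining pools count as changed when migration robust z lies outside -2 to 2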
Calls: active = migration changed; inactive = no migration change, or too few cells
This is one part, drawn at random, of about 18,000 reagents tested. About 1,030 of all reagents (5.7%) count as active. 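Inactive calls also include pools with fewer than 3300 nuclei, whose migration was not assessed.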 Raw values vary from plate to plate and are shown uncorrected. Unmarked entries are inactive. Not all columns of the deposit are shown. Reagent sequences are not shown.

gene symbol	migration robust z-score	migration class with cell-count check	nuclei per well, duplicate mean
ATP13A5	-1.89	migration z between -2 and 2; enough cells	5277
BAX	0.75	migration z between -2 and 2; enough cells	5954
NETO1	0.92	migration z between -2 and 2; enough cells	6338
SALL1	0	migration z between -2 and 2; enough cells	5668
TRPC7	-0.8	migration z between -2 and 2; enough cells	4781
SPATA18	0.56	migration z between -2 and 2; enough cells	4452
PADI2	-1.04	migration z between -2 and 2; enough cells	6785
OPN1LW	0.26	migration z between -2 and 2; enough cells	5390
TXNDC2	0.36	migration z between -2 and 2; enough cells	4848
SMIM19	-1	migration z between -2 and 2; enough cells	6214
ACADVL	0.42	migration z between -2 and 2; enough cells	4949
GART	-1.04	migration z between -2 and 2; enough cells	4915
SPATS1	-4.12 (active)	migration z below -2; enough cells	4108
VPS26A	0.62	migration z between -2 and 2; enough cells	5652
GMCL1	-1.23	under 3300 nuclei; migration not judged	2620
ARPC2	-1.16	migration z between -2 and 2; enough cells	5082
NOSIP	-0.73	migration z between -2 and 2; enough cells	5310
DEFB106B	-1.6	migration z between -2 and 2; enough cells	6776
CDH13	0.4	migration z between -2 and 2; enough cells	6846
RXFP1	1.25	migration z between -2 and 2; enough cells	6224
IARS2	1.5	migration z between -2 and 2; enough cells	7065
CCR8	1.92	migration z between -2 and 2; enough cells	6666

Entries above whose target name begins with T or t (2):
gene symbol	migration robust z-score	migration class with cell-count check	nuclei per well, duplicate mean
TRPC7	-0.8	migration z between -2 and 2; enough cells	4781
TXNDC2	0.36	migration z between -2 and 2; enough cells	4848

Next records:
gene symbol	migration robust z-score	migration class with cell-count check	nuclei per well, duplicate mean
ANXA3	0.36	migration z between -2 and 2; enough cells	6142
DDRGK1	0.82	migration z between -2 and 2; enough cells	7415
TXNRD2	-1.04	under 3300 nuclei; migration not judged	58
RAB5C	-0.52	migration z between -2 and 2; enough cells	6016
NOG	-0.97	migration z between -2 and 2; enough cells	4586
MEFV	0.64	migration z between -2 and 2; enough cells	6448
P4HA2	0.52	migration z between -2 and 2; enough cells	5054
NTAN1	1.28	migration z between -2 and 2; enough cells	6026
PMVK	-2.62 (active)	migration z below -2; enough cells	3831
NOL12	1.18	migration z between -2 and 2; enough cells	4690
CALML5	-1.35	migration z between -2 and 2; enough cells	3963
GAB3	0.77	migration z between -2 and 2; enough cells	6074
ATP5MG	-0.44	migration z between -2 and 2; enough cells	5936
USP32	0	migration z between -2 and 2; enough cells	5605
CERT1	0.05	migration z between -2 and 2; enough cells	6323
MED25	0.59	migration z between -2 and 2; enough cells	6956
RMC1	1.39	migration z between -2 and 2; enough cells	6609
